Values from PubChem BioAssay AID1259405 (NCATS, 2018).
Test: 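Silenced genes that increase secreted GFP made by CHO cells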 (primary screen). System: Chinese hamster CHO-K1 ovary cells with stable secreted eGFP expression. Reagent: single siRNA against mouse genes, 0.8 pmol siRNA per well (2 µl of 400 nM stock). Timing: 3 days. Detection: 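Percent of the per-plate non-targeting control median for intracellular GFP per well by laser scanning cytometry and for cell viability by ATP luminescence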. Scale: GFP, % of control: higher = more GFP per well, higher productivity; viability (ATP), % of control: higher = more viable cells (more ATP). Rule for the call: 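a knock-down is called active if GFP reaches 120% or more of non-targeting control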.
Here is a random part of about 50,000 deposited reagents. In the full data, about 4,000 (8%) were called active. 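Mouse siRNA library applied to hamster cells; one well for each siRNA.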 The numbers tell different reagents against one gene apart. No sequences are given here.

The first 4 entries as a preview:
gene | siRNA no. | GFP, % of control | viability (ATP), % of control | Call
Bag2 (BCL2-associated athanogene 2) | 1 | 61.9 | 83.8 | inactive
Bag2 (BCL2-associated athanogene 2) | 2 | 104 | 89.5 | inactive
Bag2 (BCL2-associated athanogene 2) | 3 | 71.9 | 133 | inactive
Wdr31 (WD repeat domain 31) | 1 | 63.7 | 61.3 | inactive

Main list, repeating the preview:
gene | siRNA no. | GFP, % of control | viability (ATP), % of control | Call
Bag2 (BCL2-associated athanogene 2) | 1 | 61.9 | 83.8 | inactive
Bag2 (BCL2-associated athanogene 2) | 2 | 104 | 89.5 | inactive
Bag2 (BCL2-associated athanogene 2) | 3 | 71.9 | 133 | inactive
Wdr31 (WD repeat domain 31) | 1 | 63.7 | 61.3 | inactive
Wdr31 (WD repeat domain 31) | 2 | 76.1 | 60.1 | inactive
Wdr31 (WD repeat domain 31) | 3 | 70 | 68 | inactive
Cgrrf1 (cell growth regulator with ring finger domain 1) | 1 | 74.3 | 85.5 | inactive
Cgrrf1 (cell growth regulator with ring finger domain 1) | 2 | 99.3 | 87.4 | inactive
Cgrrf1 (cell growth regulator with ring finger domain 1) | 3 | 64.7 | 71 | inactive
Fsd1l (fibronectin type III and SPRY domain containing 1-like) | 1 | 61.5 | 73.7 | inactive
Fsd1l (fibronectin type III and SPRY domain containing 1-like) | 2 | 107 | 77.1 | inactive
Fsd1l (fibronectin type III and SPRY domain containing 1-like) | 3 | 89.5 | 90 | inactive
Vrk3 (vaccinia related kinase 3) | 1 | 73 | 83.3 | inactive
Vrk3 (vaccinia related kinase 3) | 2 | 24.7 | 44.4 | inactive
Vrk3 (vaccinia related kinase 3) | 3 | 65.4 | 73 | inactive
Cyp3a11 (cytochrome P450, family 3, subfamily a, polypeptide 11) | 1 | 84.7 | 79.3 | inactive
Cyp3a11 (cytochrome P450, family 3, subfamily a, polypeptide 11) | 2 | 65.9 | 78.1 | inactive
Cyp3a11 (cytochrome P450, family 3, subfamily a, polypeptide 11) | 3 | 56.7 | 48.5 | inactive
Cadm4 (cell adhesion molecule 4) | 1 | 132 | 89.8 | active
Cadm4 (cell adhesion molecule 4) | 2 | 83.8 | 72.2 | inactive
Cadm4 (cell adhesion molecule 4) | 3 | 101 | 102 | inactive
Rrbp1 (ribosome binding protein 1) | 1 | 53.9 | 38.4 | inactive
Rrbp1 (ribosome binding protein 1) | 2 | 120 | 110 | active
Rrbp1 (ribosome binding protein 1) | 3 | 106 | 81.7 | inactive
Rps6 (ribosomal protein S6) | 1 | 28.7 | 18.8 | inactive
Rps6 (ribosomal protein S6) | 2 | 94.2 | 68.3 | inactive
Rps6 (ribosomal protein S6) | 3 | 39.7 | 40.9 | inactive
Gramd1b (GRAM domain containing 1B) | 1 | 43.3 | 70.2 | inactive
Gramd1b (GRAM domain containing 1B) | 2 | 19.8 | 63.9 | inactive
Gramd1b (GRAM domain containing 1B) | 3 | 43.3 | 64.2 | inactive
Rhox1 (reproductive homeobox 1) | 1 | 142 | 73.1 | active
Rhox1 (reproductive homeobox 1) | 2 | 99.1 | 105 | inactive
Rhox1 (reproductive homeobox 1) | 3 | 34.4 | 43.2 | inactive
Tnfrsf13b (tumor necrosis factor receptor superfamily, member 13b) | 1 | 65.1 | 102 | inactive
Tnfrsf13b (tumor necrosis factor receptor superfamily, member 13b) | 2 | 108 | 81.7 | inactive
Tnfrsf13b (tumor necrosis factor receptor superfamily, member 13b) | 3 | 80.2 | 87.8 | inactive
Rogdi (rogdi homolog) | 1 | 239 | 82 | active
Rogdi (rogdi homolog) | 2 | 74.8 | 82.7 | inactive
Rogdi (rogdi homolog) | 3 | 95 | 75.9 | inactive
Rogdi (rogdi homolog) | 4 | 113 | 89.9 | inactive
Rogdi (rogdi homolog) | 5 | 103 | 106 | inactive
Rogdi (rogdi homolog) | 6 | 70.2 | 103 | inactive
Cnbp (cellular nucleic acid binding protein) | 1 | 60.2 | 64.1 | inactive
Cnbp (cellular nucleic acid binding protein) | 2 | 124 | 86.9 | active
Cnbp (cellular nucleic acid binding protein) | 3 | 101 | 95.6 | inactive
Dscaml1 (DS cell adhesion molecule like 1) | 1 | 70.8 | 71.3 | inactive
Dscaml1 (DS cell adhesion molecule like 1) | 2 | 84.1 | 75.5 | inactive
Dscaml1 (DS cell adhesion molecule like 1) | 3 | 109 | 99.5 | inactive
Card14 (caspase recruitment domain family, member 14) | 1 | 121 | 161 | active
Card14 (caspase recruitment domain family, member 14) | 2 | 172 | 82.7 | active
Nelfe (negative elongation factor complex member E, Rdbp) | 1 | 78.3 | 52 | inactive
Nelfe (negative elongation factor complex member E, Rdbp) | 2 | 83.5 | 59.9 | inactive
Ola1 (Obg-like ATPase 1) | 1 | 69.2 | 71.7 | inactive
Ola1 (Obg-like ATPase 1) | 2 | 68.2 | 58.2 | inactive
Ola1 (Obg-like ATPase 1) | 3 | 53.8 | 76.7 | inactive
A830039N20Rik (RIKEN cDNA A830039N20 gene) | 1 | 73.1 | 60.2 | inactive
A830039N20Rik (RIKEN cDNA A830039N20 gene) | 2 | 140 | 97.8 | active
A830039N20Rik (RIKEN cDNA A830039N20 gene) | 3 | 80.1 | 82.6 | inactive
